PubChem BioAssay AID743456 | Peter MacCallum Cancer Centre – 2014
This is an unselected part of 878 reagents tested. In the full data, 27 (3.1%) were called active. 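27 mimics are marked active, unlike an earlier stated count of 24; the viability threshold is described inconsistently.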 A number with no mark means an inactive call. Further read-outs or replicates are left out here. No sequences are given here. Not given: the amount of reagent.

Purpose: 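Mimic library tested for viability and apoptosis changes under vorinostat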 (primary screen)
Cells: human HCT116-VR colon cancer cells, a vorinostat-resistant HCT116 line
Reagents: miRNA mimic
Duration: about 3 days from transfection to readout; drug present for the last 24 h
Treatment: vorinostat at 2.5 µM final for 24 h
Measured: 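Per-well live-cell protease fluorescence and caspase luminescence under 2.5 µM vorinostat for 24 h, scored as robust z-scores and against mock transfection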
Direction: viability robust z-score: higher = more viable cells; caspase robust z-score: higher = more caspase activity, more apoptosis
Rule for the call: 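a mimic counts as active if it lands in a lowered-viability class or a caspase-activation class; wells with too few cells without drug are left out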

With hsa-miR-20a*, what was measured?
viability robust z-score: 0.9; caspase robust z-score: -0.03; viability hit class: no change; caspase hit class: no change

With hsa-miR-345, how do the results read?
viability robust z-score: -0.26; caspase robust z-score: 0.76; viability hit class: no change; caspase hit class: no change

For hsa-miR-944, what was measured?
viability robust z-score: -0.08; caspase robust z-score: -0.77; viability hit class: no change; caspase hit class: no change

For hsa-miR-1228, how do the results read?
viability robust z-score: -0.28; caspase robust z-score: 2.21; viability hit class: no change; caspase hit class: no change

With hsa-miR-875-5p, what does the deposit list?
viability robust z-score: -0.41; caspase robust z-score: -0.83; viability hit class: no change; caspase hit class: no change

What did the screen give for hsa-miR-384?
viability robust z-score: 0.22; caspase robust z-score: -0.74; viability hit class: no change; caspase hit class: no change

For hsa-miR-93*, what does the deposit list?
viability robust z-score: -2.24; caspase robust z-score: 3.96; viability hit class: no change; caspase hit class: no change

What did the screen give for hsa-miR-1275?
viability robust z-score: -3.3 (active); caspase robust z-score: 2.23; viability hit class: reduced viability; caspase hit class: no change

What is on record for hsa-miR-29b-2*?
viability robust z-score: -0.52; caspase robust z-score: 2.38; viability hit class: no change; caspase hit class: no change

What did the screen give for hsa-miR-142-3p?
viability robust z-score: -0.81; caspase robust z-score: 2.52; viability hit class: no change; caspase hit class: no change

How did the screen score hsa-miR-1975?
viability robust z-score: 1.75; caspase robust z-score: -0.23; viability hit class: no change; caspase hit class: no change

What did the screen give for hsa-miR-99a*?
viability robust z-score: -0.12; caspase robust z-score: -0.56; viability hit class: no change; caspase hit class: no change

Only “caspase robust z-score” (2 entries from above):
hsa-miR-142-3p: 2.52
hsa-miR-1975: -0.23
